PMC12268348
No constants are given. Whether binding was seen depends on the method and setting. In cells and extracts the contact can be indirect. Some binding calls cover weakened binding; strength is not graded here.

Chains of the proteins cited; added tags and fusions are not shown.
UniProt Q9JJ50: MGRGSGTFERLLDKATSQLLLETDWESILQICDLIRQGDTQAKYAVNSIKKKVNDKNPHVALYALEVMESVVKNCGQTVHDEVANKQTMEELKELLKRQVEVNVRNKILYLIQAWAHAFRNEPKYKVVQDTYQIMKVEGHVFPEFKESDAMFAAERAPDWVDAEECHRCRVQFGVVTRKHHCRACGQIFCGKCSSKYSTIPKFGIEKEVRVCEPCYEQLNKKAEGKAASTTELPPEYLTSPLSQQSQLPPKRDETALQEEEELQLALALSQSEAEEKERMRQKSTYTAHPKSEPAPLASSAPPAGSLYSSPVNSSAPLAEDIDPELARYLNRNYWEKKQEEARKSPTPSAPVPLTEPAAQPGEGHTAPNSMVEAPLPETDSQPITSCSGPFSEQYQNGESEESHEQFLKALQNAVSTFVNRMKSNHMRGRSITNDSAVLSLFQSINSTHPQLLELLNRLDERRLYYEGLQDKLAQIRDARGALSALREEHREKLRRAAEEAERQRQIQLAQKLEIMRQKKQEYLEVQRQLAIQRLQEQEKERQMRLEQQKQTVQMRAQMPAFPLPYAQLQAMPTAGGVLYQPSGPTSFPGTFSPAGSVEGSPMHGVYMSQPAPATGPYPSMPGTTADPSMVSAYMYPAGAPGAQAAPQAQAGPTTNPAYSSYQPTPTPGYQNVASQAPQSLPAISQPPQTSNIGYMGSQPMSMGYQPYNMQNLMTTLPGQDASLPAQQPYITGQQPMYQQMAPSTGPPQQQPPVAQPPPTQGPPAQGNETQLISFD

What was measured:
Experiment in all cases: co-IP; endogenous proteins in lysates of rat primary FLSs (OE/KD PPARγ-treated); IP/Co-IP lysis buffer; antibody with Protein A/G magnetic beads, 4 °C overnight; washed thrice with lysis buffer; Western blot; IgG control
[1] = biological target: T1, PPARγ coactivator PGC-1α (rat (endogenous in primary FLSs of SD rats)) (UniProt Q9QYK2)
T1 sequence: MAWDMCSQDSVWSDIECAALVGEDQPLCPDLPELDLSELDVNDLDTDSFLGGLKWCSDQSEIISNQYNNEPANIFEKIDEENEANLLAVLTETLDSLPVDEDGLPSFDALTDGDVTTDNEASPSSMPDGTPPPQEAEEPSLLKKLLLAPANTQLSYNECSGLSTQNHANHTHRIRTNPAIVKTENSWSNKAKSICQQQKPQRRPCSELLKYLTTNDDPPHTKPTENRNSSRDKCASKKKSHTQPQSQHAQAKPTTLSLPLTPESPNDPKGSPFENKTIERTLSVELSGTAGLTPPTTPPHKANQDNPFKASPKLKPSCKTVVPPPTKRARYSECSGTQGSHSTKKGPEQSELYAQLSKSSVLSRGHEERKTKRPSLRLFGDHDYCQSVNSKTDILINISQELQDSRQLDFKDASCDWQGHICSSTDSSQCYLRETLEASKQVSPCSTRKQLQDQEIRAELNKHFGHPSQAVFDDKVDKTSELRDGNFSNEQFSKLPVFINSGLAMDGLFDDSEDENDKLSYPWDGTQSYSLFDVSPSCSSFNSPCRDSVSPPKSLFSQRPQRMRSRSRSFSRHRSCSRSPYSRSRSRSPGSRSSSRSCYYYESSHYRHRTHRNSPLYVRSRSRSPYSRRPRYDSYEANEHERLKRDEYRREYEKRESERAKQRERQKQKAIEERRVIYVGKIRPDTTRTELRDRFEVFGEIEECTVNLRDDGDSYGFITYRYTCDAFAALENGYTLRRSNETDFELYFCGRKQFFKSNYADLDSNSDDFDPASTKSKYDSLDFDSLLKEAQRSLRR

[2] = biological target: T2, TSG101 (ESCRT-I subunit) (rat (endogenous in primary FLSs of SD rats)) (UniProt Q6IRE4)
T2 sequence: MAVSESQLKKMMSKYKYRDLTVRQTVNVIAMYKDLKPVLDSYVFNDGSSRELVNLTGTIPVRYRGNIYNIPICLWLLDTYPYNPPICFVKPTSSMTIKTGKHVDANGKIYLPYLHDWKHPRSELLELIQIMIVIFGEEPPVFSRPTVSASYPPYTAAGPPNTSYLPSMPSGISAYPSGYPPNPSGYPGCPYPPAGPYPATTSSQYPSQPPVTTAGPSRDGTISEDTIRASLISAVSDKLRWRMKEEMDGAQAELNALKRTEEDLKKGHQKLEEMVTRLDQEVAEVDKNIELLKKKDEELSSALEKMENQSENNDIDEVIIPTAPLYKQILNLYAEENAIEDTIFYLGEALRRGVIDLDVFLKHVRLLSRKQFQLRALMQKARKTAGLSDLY

[3] = biological target: Hrs (ESCRT-0 subunit), hepatocyte growth factor-regulated tyrosine kinase substrate (rat (endogenous in primary FLSs of SD rats)) (UniProt Q9JJ50)
[4] = biological target: T3, CHMP7 (ESCRT-III subunit) (rat (endogenous in primary FLSs of SD rats)) (UniProt D4A7H9)
T3 sequence: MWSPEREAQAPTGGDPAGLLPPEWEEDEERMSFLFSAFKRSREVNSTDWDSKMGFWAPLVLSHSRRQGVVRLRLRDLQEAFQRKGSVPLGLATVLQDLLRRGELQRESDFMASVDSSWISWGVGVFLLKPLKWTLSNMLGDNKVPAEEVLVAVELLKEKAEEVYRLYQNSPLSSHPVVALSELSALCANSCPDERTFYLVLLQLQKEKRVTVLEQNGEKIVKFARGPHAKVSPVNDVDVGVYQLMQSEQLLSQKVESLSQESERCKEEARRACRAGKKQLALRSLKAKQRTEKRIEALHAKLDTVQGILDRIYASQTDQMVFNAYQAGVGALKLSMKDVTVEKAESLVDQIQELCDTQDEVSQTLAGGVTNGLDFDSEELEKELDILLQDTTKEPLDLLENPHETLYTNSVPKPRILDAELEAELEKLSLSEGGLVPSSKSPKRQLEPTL

B1: TSG101 (ESCRT-I subunit) (protein, UniProt Q6IRE4 1-391)
chain: MAVSESQLKKMMSKYKYRDLTVRQTVNVIAMYKDLKPVLDSYVFNDGSSRELVNLTGTIPVRYRGNIYNIPICLWLLDTYPYNPPICFVKPTSSMTIKTGKHVDANGKIYLPYLHDWKHPRSELLELIQIMIVIFGEEPPVFSRPTVSASYPPYTAAGPPNTSYLPSMPSGISAYPSGYPPNPSGYPGCPYPPAGPYPATTSSQYPSQPPVTTAGPSRDGTISEDTIRASLISAVSDKLRWRMKEEMDGAQAELNALKRTEEDLKKGHQKLEEMVTRLDQEVAEVDKNIELLKKKDEELSSALEKMENQSENNDIDEVIIPTAPLYKQILNLYAEENAIEDTIFYLGEALRRGVIDLDVFLKHVRLLSRKQFQLRALMQKARKTAGLSDLY
binding [1]: binds

B2: CHMP7 (ESCRT-III subunit) (protein, UniProt D4A7H9 1-450)
chain: MWSPEREAQAPTGGDPAGLLPPEWEEDEERMSFLFSAFKRSREVNSTDWDSKMGFWAPLVLSHSRRQGVVRLRLRDLQEAFQRKGSVPLGLATVLQDLLRRGELQRESDFMASVDSSWISWGVGVFLLKPLKWTLSNMLGDNKVPAEEVLVAVELLKEKAEEVYRLYQNSPLSSHPVVALSELSALCANSCPDERTFYLVLLQLQKEKRVTVLEQNGEKIVKFARGPHAKVSPVNDVDVGVYQLMQSEQLLSQKVESLSQESERCKEEARRACRAGKKQLALRSLKAKQRTEKRIEALHAKLDTVQGILDRIYASQTDQMVFNAYQAGVGALKLSMKDVTVEKAESLVDQIQELCDTQDEVSQTLAGGVTNGLDFDSEELEKELDILLQDTTKEPLDLLENPHETLYTNSVPKPRILDAELEAELEKLSLSEGGLVPSSKSPKRQLEPTL
binding [1]: binds

B3: PPARγ coactivator PGC-1α (protein, UniProt Q9QYK2 1-796)
chain: MAWDMCSQDSVWSDIECAALVGEDQPLCPDLPELDLSELDVNDLDTDSFLGGLKWCSDQSEIISNQYNNEPANIFEKIDEENEANLLAVLTETLDSLPVDEDGLPSFDALTDGDVTTDNEASPSSMPDGTPPPQEAEEPSLLKKLLLAPANTQLSYNECSGLSTQNHANHTHRIRTNPAIVKTENSWSNKAKSICQQQKPQRRPCSELLKYLTTNDDPPHTKPTENRNSSRDKCASKKKSHTQPQSQHAQAKPTTLSLPLTPESPNDPKGSPFENKTIERTLSVELSGTAGLTPPTTPPHKANQDNPFKASPKLKPSCKTVVPPPTKRARYSECSGTQGSHSTKKGPEQSELYAQLSKSSVLSRGHEERKTKRPSLRLFGDHDYCQSVNSKTDILINISQELQDSRQLDFKDASCDWQGHICSSTDSSQCYLRETLEASKQVSPCSTRKQLQDQEIRAELNKHFGHPSQAVFDDKVDKTSELRDGNFSNEQFSKLPVFINSGLAMDGLFDDSEDENDKLSYPWDGTQSYSLFDVSPSCSSFNSPCRDSVSPPKSLFSQRPQRMRSRSRSFSRHRSCSRSPYSRSRSRSPGSRSSSRSCYYYESSHYRHRTHRNSPLYVRSRSRSPYSRRPRYDSYEANEHERLKRDEYRREYEKRESERAKQRERQKQKAIEERRVIYVGKIRPDTTRTELRDRFEVFGEIEECTVNLRDDGDSYGFITYRYTCDAFAALENGYTLRRSNETDFELYFCGRKQFFKSNYADLDSNSDDFDPASTKSKYDSLDFDSLLKEAQRSLRR
binding [2]: binds | binding [3]: binds | binding [4]: binds

B4: Annexin A1 (ANXA1) in FLSs (protein, UniProt P07150 1-346)
chain: MAMVSEFLKQACYIEKQEQEYVQAVKSYKGGPGSAVSPYPSFNPSSDVAALHKAIMVKGVDEATIIDILTKRTNAQRQQIKAAYLQETGKPLDETLKKALTGHLEEVVLAMLKTPAQFDADELRAAMKGLGTDEDTLIEILTTRSNQQIREITRVYREELKRDLAKDITSDTSGDFRNALLALAKGDRCEDMSVNQDLADTDARALYEAGERRKGTDVNVFNTILTTRSYPHLRKVFQNYRKYSQHDMNKALDLELKGDIEKCLTTIVKCATSTPAFFAEKLYEAMKGAGTRHKTLIRIMVSRSEIDMNEIKVFYQKKYGIPLCQAILDETKGDYEKILVALCGGN
binding [1]: binds
